These results are taken from patent US12060349B2, “Glucosylceramide synthase inhibitors” (Genzyme Corporation, priority 2012, dated 2024).

Where only a bound is given, the exact number is not on record here.

In assay [1] the target is T1, glucosylceramide synthase (Homo sapiens, UniProt Q16739).
T1 construct: Microsomes were isolated from A375 human melanoma cells; endogenous in cells; host or cells: A375 human melanoma cells (microsomal fraction, 100,000 g pellet)
T1 sequence (Q16739 1-394): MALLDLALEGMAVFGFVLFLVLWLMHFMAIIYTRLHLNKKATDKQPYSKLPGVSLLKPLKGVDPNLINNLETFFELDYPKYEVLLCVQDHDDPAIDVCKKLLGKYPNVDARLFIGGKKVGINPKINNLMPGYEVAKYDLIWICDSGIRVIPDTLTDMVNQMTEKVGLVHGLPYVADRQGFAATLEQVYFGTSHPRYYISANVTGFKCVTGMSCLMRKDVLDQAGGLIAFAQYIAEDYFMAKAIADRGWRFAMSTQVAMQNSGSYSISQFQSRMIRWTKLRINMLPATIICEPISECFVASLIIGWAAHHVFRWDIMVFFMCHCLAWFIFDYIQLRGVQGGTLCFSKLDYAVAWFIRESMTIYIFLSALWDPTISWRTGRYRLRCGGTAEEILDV
Briefly: microsomal assay measuring conversion of ceramide to glucosylceramide by HPLC (GCS IC50). In kind it is biochemical. Conditions: concentration causing 50% inhibition of glucosylceramide synthase activity. How it is done: Inhibition of glucosylceramide synthase activity for certain compounds of the invention were measured with 1) a microsomal assay that directly measures the conversion of ceramide to glucosylceramide by HPLC and 2) second, cell based, phenotypic assay that monitors cell surface expression of the downstream lipid GM3 by antibody mediated immunofluorescence. The cell based assay was performed in two different cell types, B16 and C32. Cell viability was also assessed in the second, cell-based assay.
The “Compound Number” in the table corresponds to the compound disclosed in the Example of the same number. The results of the microsomal assay are expressed as “GCS IC50”, which represents the concentration of the compound causing 50% inhibition of glucosylceramide synthase activity. The results of the cell based assays (performed in two different cell systems, i.e. B16 mouse melanoma or C32 human melanoma cells) are expressed as “GM3 B16 IC50” or “GM3 C32 IC50” for the B16 assay and the C32 assay, respectively. These values represent the concentration of the compound causing 50% inhibition of GM3 expression on the cell surface. The results of the viability assays are expressed as “Viability, B16 IC50” or “Viability, C32 IC50”, respectively. These values represent the concentration of the compound causing 50% cell death. Values greater than 10 represent a lack of cell death.

For another assay, the system named is B16 mouse melanoma cells. Briefly: cell viability in the B16 cell-based assay (Viability, B16 IC50). Conditions: concentration causing 50% cell death, values greater than 10 represent a lack of cell death. Here is the method: (§1) The cell based assay was performed in two different cell types, B16 and C32. Cell viability was also assessed in the second, cell-based assay.
(§2) The “Compound Number” in the table corresponds to the compound disclosed in the Example of the same number. […] The results of the cell based assays (performed in two different cell systems, i.e. B16 mouse melanoma or C32 human melanoma cells) are expressed as “GM3 B16 IC50” or “GM3 C32 IC50” for the B16 assay and the C32 assay, respectively. […] The results of the viability assays are expressed as “Viability, B16 IC50” or “Viability, C32 IC50”, respectively. These values represent the concentration of the compound causing 50% cell death. Values greater than 10 represent a lack of cell death.

For another assay, the system named is C32 human melanoma cells. Briefly: cell viability in the C32 cell-based assay (Viability, C32 IC50). The settings on record: concentration causing 50% cell death, values greater than 10 represent a lack of cell death. Here is the method:
as §1, §2

Assay [2] relates to GM3 expression on the cell surface, C32 human melanoma cells. The experiment in a line: cell based phenotypic assay, cell surface GM3 by antibody mediated immunofluorescence, C32 (GM3 C32 IC50). The settings on record: 50% inhibition of GM3 expression on the cell surface. How it is done: as §1, §2
Assay [3] deals with GM3 expression on the cell surface, B16 mouse melanoma cells. The experiment in a line: cell based phenotypic assay, cell surface GM3 by antibody mediated immunofluorescence, B16 (GM3 B16 IC50). The settings on record: 50% inhibition of GM3 expression on the cell surface. How it is done: as §1, §2

The IC50 is the point on the concentration scale where inhibition reaches its midpoint. For `COCCOc1ccc(Oc2cnc(N3CCC(F)(C(=O)NC4(C)CN5CCC4CC5)CC3)nc2)cc1` (centres unmarked) [Example 131, 4-Fluoro-1-(5-(4-(2-methoxyethoxy)phenoxy)pyrimidin-2-yl)-N-(3-methylquinuclidin-3-yl)piperidine-4-carboxamide], the half-maximal inhibitory concentration (IC50) in assay [1] was 6.81 nM; in the assay with B16 mouse melanoma cells, no less than 10000 nM; in the assay on C32 human melanoma cells, 1000 nM; in assay [2], 0.858 nM; in assay [3], 52.7 nM.
